Source: the supplement of paper PMC3334620
The full ranking holds about 33,000 sequences; the median of “E-score (-0.5 to 0.5)” is about -0.0014, and the highest 2% start at about 0.25. Some of the results follow.

molecular target: T1, Cad1 (UniProt P24813); test: PBM E-score (8-mer binding enrichment) (E-score (-0.5 to 0.5)); higher = stronger / more preferred TF binding; conditions: protein concentration: 100 nM; construct: GST-full length
T1 sequence: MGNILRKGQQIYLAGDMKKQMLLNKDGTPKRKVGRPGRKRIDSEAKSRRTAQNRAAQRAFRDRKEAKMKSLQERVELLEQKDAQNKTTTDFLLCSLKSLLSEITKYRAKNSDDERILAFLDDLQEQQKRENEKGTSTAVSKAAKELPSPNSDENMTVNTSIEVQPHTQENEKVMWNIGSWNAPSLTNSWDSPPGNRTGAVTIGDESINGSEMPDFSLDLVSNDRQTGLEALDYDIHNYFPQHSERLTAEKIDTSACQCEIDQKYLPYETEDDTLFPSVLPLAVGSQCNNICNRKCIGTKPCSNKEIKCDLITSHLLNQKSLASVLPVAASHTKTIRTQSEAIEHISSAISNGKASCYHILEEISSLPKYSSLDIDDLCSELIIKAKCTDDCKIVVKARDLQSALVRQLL
Procedure, shortened: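 Each ungapped eight-base word and its reverse complement, pooled, received an E-score from the Universal PBM Analysis Suite. Underlying scans, normalised with masliner, recorded fluorescent anti-GST bound to GST-tagged yeast transcription factors. These were applied at about 100-200 nM to universal all-10-mer Agilent arrays double-stranded by primer extension.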

Row | Sequence | PBM E-score
1 | CATTGCGC | 0.134
2 | ATAGACCA | 0.0503
3 | TCCCCAGA | -0.109
4 | ATCACCGA | 0.12
5 | GCGAGTAA | 0.147
6 | TAAGTATA | 0.221
7 | AGGCGCCC | -0.218
8 | CGACAGTA | 0.0498
9 | ACAAAGTA | 0.193
10 | AGTACATC | -0.0878
11 | AACACACC | 0.18
12 | ATATTGCC | -0.0802
13 | CGGCTGGA | -0.143
14 | ACGCCCAA | -0.142
15 | AAAGTAAC | 0.0974
16 | ACCTCTAG | -0.147
17 | AGTGAATA | 0.0196
18 | GGCGCAAC | 0.0646
19 | AGTAATAC | 0.21
20 | CAGTGGGA | -0.203
21 | GGGTTGGA | -0.0426
22 | CATCAAAC | -0.0197
23 | AAATAGTG | 0.258
24 | CCCACAAA | 0.0628
25 | CTTACGGA | 0.0215

Row | Sequence | PBM E-score
26 | CGGAGAAG | -0.0467
27 | GACTGGAA | -0.168
28 | AGTAAGAT | 0.0748
29 | CTCCTGGC | -0.0344
30 | AACTCTCA | 0.135
31 | GGTTGTTA | 0.102
32 | CGAACCAG | 0.142
33 | AATGCAAT | -0.154
34 | CCCTGTCA | -0.131
35 | ATCGAGCG | 0.156
36 | AGGGCAGA | -0.132
37 | ACCCTGGA | -0.152
38 | TCTACCAA | 0.128
39 | AGTACCCG | -0.045
40 | ACGGTTGA | -0.0175
41 | AAAATTCA | 0.284
42 | CAAAGGTC | -0.202
43 | GATCTACA | 0.0317
44 | ACAGACCT | 0.206
45 | GGGAACGA | 0.0191
46 | AGTCTTCG | 0.043
47 | AATCGGAT | 0.283
48 | CCAGTCGA | -0.0359
49 | GCGTGCTA | -0.114
50 | ATAGATGG | -0.259

Row | Sequence | PBM E-score
51 | CTGCTCTA | -0.00251
52 | CATGTTCC | -0.00232
53 | CACCTATG | -0.18
54 | ACCTGTCA | -0.0819
55 | ACACCTAG | -0.123
56 | CGGCACGA | 0.0949
57 | CGGTAGTA | -0.0186
58 | CCAGTCTA | -0.0582
59 | GCTTGTGA | -0.0693
60 | CAATTATA | 0.161
61 | CGCCTTTA | 0.0567
62 | AAATCTAC | 0.0177
63 | GCTGCCTA | -0.0988
64 | ACGGGTGC | -0.0882
65 | AAAATAGT | 0.118
66 | ATCTCGTC | 0.0718
67 | CCACTGCG | 0.0354
68 | AGCCCAAG | -0.159
69 | CAGTGTTC | 0.176
70 | AAATCTGT | 0.131
71 | CCTGATAC | 0.153
72 | GAGCGGCC | -0.145
73 | ACAAGCGA | 0.08
74 | AGGTCCAC | -0.258
75 | GATCTCTA | -0.00974

Row | Sequence | PBM E-score
76 | CCTTCGAC | -0.0612
77 | CACGCTGC | -0.0829
78 | ACTTAACG | -0.0498
79 | CAAGAGGC | -0.213
80 | ATGTTCGC | 0.0108
81 | AAAGCGGT | -0.0418
82 | GATCCATC | -0.0996
83 | AATCAATA | 0.00906
84 | CATTGGGA | -0.0639
85 | ACCGTTCG | 0.139
86 | CATCAGCA | 0.01
87 | CGTGGCTA | -0.0782
88 | CCCCGGTC | -0.303
89 | ACGAAGAC | -0.236
90 | CGCTCTGA | 0.116
91 | AACGAACC | 0.134
92 | TACAGTCA | 0.0998
93 | CCCCTCCG | -0.0749
94 | AACCAATA | -0.014
95 | AAGTGTTG | 0.147
96 | ATCATTAA | 0.171
97 | ACAGCGAA | 0.0806
98 | TGAGAGCA | 0.00881
99 | TGCCCCCA | -0.294
100 | CCAGTTGC | -0.213

Row | Sequence | PBM E-score
101 | AATATATG | 0.236
102 | AATTTTCT | 0.149
103 | AACAGTCT | -0.0949
104 | GATCTAAC | 0.167
105 | AGTACTCC | -0.103
106 | CGTCAGCA | 0.218
107 | ACACGGGC | -0.114
108 | ACACTGAC | 0.0777
109 | ATAAATCC | 0.0761
110 | AACAAAGT | 0.191
111 | CCCGATTC | 0.00427
112 | ATTTGAAC | 0.0764
113 | CGCCGAGA | -0.102
114 | CCCGCCAC | 0.118
115 | AAAGGGCG | -0.0326
116 | TACGCCAA | -0.237
117 | CGATACAC | 0.00183
118 | CTTCGTCA | -0.00441
119 | AATCAAAT | 0.074
120 | ACCAGAAC | 0.0293
121 | ATTTAACA | 0.193
122 | AGAAAGGA | -0.165
123 | CGCGTCAG | -0.0418
124 | GAGAGGAA | -0.15
125 | ATACTCAT | -0.114

Row | Sequence | PBM E-score
126 | CCAATTCC | 0.215
127 | ATTATCGC | 0.282
128 | CGGAAAAA | 0.125
129 | AACTGTGG | 0.105
130 | AGGCAGGC | -0.0905
131 | ATGGACAA | 0.141
132 | AGGGTATG | -0.017
133 | AGAGACTC | -0.143
134 | CGAGTGCG | 0.208
135 | CTAGAGTC | -0.369
136 | ATGTATCG | 0.138
137 | ATCAGGTG | 0.0374
138 | GTGTAAAC | -0.127
139 | AAGGCATC | -0.128
140 | CTAAAGCA | 0.135
141 | ACACTGCA | 0.0657
142 | ACGTTTGG | -0.184
143 | ACCGGGGA | -0.293
144 | CTTCTTCC | -0.15
145 | AGCCAACC | 0.031
146 | AAGACGAC | 0.105
147 | TGAGATCA | 0.00423
148 | AAAAGGCA | 0.0553
149 | AAAGTGCT | -0.0381
150 | AGCACCGA | 0.162

Numbers 140 through 145 of the list above:
Row | Sequence | PBM E-score
140 | CTAAAGCA | 0.135
141 | ACACTGCA | 0.0657
142 | ACGTTTGG | -0.184
143 | ACCGGGGA | -0.293
144 | CTTCTTCC | -0.15
145 | AGCCAACC | 0.031

The list continues:

Row | Sequence | PBM E-score
151 | ATACTGGA | 0.0235
152 | CTGACAAA | 0.444
153 | AAAGGATT | -0.0918
154 | CAACCACA | 0.071
155 | CGCCCCGC | 0.0242
156 | ACATAGAC | -0.133
157 | ACACATCC | 0.126
158 | GACTGCAA | -0.0371
159 | AAGGCAAT | -0.00865
160 | ATAGCCTG | -0.128
161 | AAGCCCAG | -0.0526
162 | GGTGTTGA | -0.0825
163 | AACGTACT | 0.142
164 | TCCAATAA | 0.2
165 | CCCCGGGG | -0.357
166 | ACTACTTG | -0.0543
167 | ATTTCTAC | 0.029
168 | AACTTAAC | 0.218
169 | GCACGTGA | 0.0273
170 | GAAGCACA | 0.0216
171 | CAATCCCG | 0.0451
172 | ATACCGTG | 0.0614

Rewritten as tab-separated lines: part of the list above
Row	Sequence	PBM E-score
161	AAGCCCAG	-0.0526
162	GGTGTTGA	-0.0825
163	AACGTACT	0.142
164	TCCAATAA	0.2
165	CCCCGGGG	-0.357
166	ACTACTTG	-0.0543
167	ATTTCTAC	0.029
